Measurements taken from article PMC10163288.
This is one part of the list.

B1: il10ra_site1_sap_23_mot_HHH_b1_05797_000000014_0001_1_19_H_._HHH_b1_08212_0001_0000100006_0000002_0_0001_af2pred_0001 (protein)
chain: SSSSSSEDEERLELAIEFARRVSDPEVAEFLLRAAAQLAEKANNEELLEEIRRLLEELGSSSSSS
B2: il10ra_site1_sap_16_mot_HHH_b2_08127_af2_000000022_0001_1_18_H_._HHH_b1_04128_0001_0000200024_0000001_0_0001 (protein)
chain: SSSSSELEEQVERLLEEAEELRERGDPEEAIRVLLRAVRLAIRASNEELLQAVWRLVKQVSSSSS
B3: il10ra_site1_sap_25_mot_HHH_b2_04586_000000230_0001_1_16_H_._HHH_b2_04117_0001_0000400047_0000001_0_0001_af2pred_0001 (protein)
chain: SSSSSRVVELIRRIIELAREGNLEEAEELLEEVRRLAEERNDYVLEHIVESMERELEELKSSSSS
B4: il10ra_site1_normal_mot_HHH_b1_01563_af2_000000118_0001_40_54_H_._HHH_b1_07449_0001_0000100007_0000002_0 (protein)
chain: SSSSDSEELAQEAIEEAWELFQRGNREEAEKVLEEAIRELRELNDERQVRFLEFLLRAVRGSSSS
B5: il10ra_site1_normal_mot_HHH_b1_03574_000000194_0001_1_18_H_._HHH_b1_04549_0001_0000100007_0000002_0_af2pred_0001 (protein)
chain: SSSSDRLEEVQELLRRIAELMRRGDREEAQELLERAKELIEELGDLVLKAVLEHLERIVNSSSSS
B6: il10ra_site1_sap_23_mot_1c3c3e46dde0d4e4be3ec3dd9add6289_0001_000000096_0001_34_50_H_._HHH_b1_06969_af2_0001_0000400009_0000001_0_0001 (protein)
chain: SSSSDEEVVELAFEAVRLLAEGDSEEAQKVAEEALELAEELGDEELRRYIEILIHFIRSQSSSSS
B7: il10ra_site1_normal_mot_HHH_b1_07768_000000240_0001_18_35_H_._HHH_b2_01511_0001_0000300037_0000001_0 (protein)
chain: SSSSSLEFSVKFLLEHVEELLENGDKEKAEHQLEALLEHLKQAGDEELLREVEELLEEVRKSSSS
B8: il10ra_site1_normal_mot_HHH_b2_00984_000000042_0001_1_20_H_._HHH_b2_01507_0001_0000100004_0000001_0 (protein)
chain: SSSSDEEVRREVEELLEEAEEIDDPRERNRLLLEATQIALRNNDPELLQLVWEIIKRLARSSSSS
B9: il10ra_site1_sap_21_mot_HHH_b1_03314_af2_000000278_0001_42_55_H_._HHH_b2_04349_0001_0000200013_0000002_0_0001 (protein)
chain: SSSSSSSDERMLRAAEALLKQGDEENARLSLRFALALARATNDEELAEEIRELLEELGSSSSSSS
B10: il10ra_site1_normal_mot_HHH_b1_06914_000000280_0001_1_18_H_._HHH_b1_02678_0001_0000300023_0000002_0 (protein)
chain: SSSSDRTQEVYELLRRAAEARANGNPEEAEELLEEARRLAEEANSELFRIQIEFLERAVKQSSSS
B11: il10ra_site1_normal_mot_8756ee2cf497b5429c717dfc0c0bcfd6_0001_000000186_0001_1_13_H_._HHH_b1_07051_af2_0001_0000100011_0000001_0_af2pred_0001 (protein)
chain: SSSTKVEEVAEILREAAELLRKGDKEEAKKLVEEAEELARENNNLTLEAIIRYLEEIIERLSSSS
B12: il10ra_site1_sap_15_mot_HHH_b2_00230_000000227_0001_1_19_H_._HHH_b2_04273_af2_0001_0000200001_0000001_0_0001 (protein)
chain: SSSSSSEAERLVEELVEELNLSEELKEALEVLAKILEIAGFSEEEAQRALEYFVEHQERISSSSS
B13: il10ra_site1_sap_27_mot_HHH_b2_02736_000000092_0001_22_38_H_._HHH_b2_04981_af2_0001_0000200015_0000001_0_0001 (protein)
chain: SSSSSDLAEEARKLIEELIELSEKGDEEELRRLLEEAEEEAERRNDDVIRAVIETLLELLSSSSS
B14: il10ra_site1_normal_mot_39ab2cb694c8b9c1dc7e65c0d672c93e_0001_000000036_0001_53_65_H_._HHH_b2_04624_af2_0001_0000200020_0000002_0 (protein)
chain: SSSSSDIEEELEKLIEKAEELLENGNPREAARVAAEASQFAMELGNAELLQEIWELAKRISSSSS
B15: il10ra_site1_sap_22_mot_HHH_b2_07145_000000158_0001_24_40_H_._HHH_b1_07964_0001_0000100004_0000002_0_0001_af2pred_0001 (protein)
chain: SSSSSSSTEAVEEVARLLEEALRNPERAEELLEEAKRLAEEANNEVLRLQIEYVERLLSSSSSSS
B16: il10ra_site1_sap_21_mot_HHH_b1_08477_000000091_0001_40_57_H_._HHH_b1_05644_af2_0001_0000600034_0000001_0_0001 (protein)
chain: SSSSSSSDVEEEVRELLEEAEEDPRHANELLQEAVRLAFRAQDPELLREVWRVVERLASSSSSSS
B17: il10ra_site1_sap_17_mot_HHH_b2_07488_000000216_0001_1_17_H_._HHH_b1_06410_0001_0000100008_0000001_0_0001_1 (protein)
chain: SSSSSSDARHEIYRLLKEAVEIDDPEEAEEVLEEAERLAREENNRVLLHVIEFLLRQIRSSSSSS
B18: il10ra_site1_sap_15_mot_HHH_b1_06804_000000054_0001_40_54_H_._HHH_b1_05559_0001_0000100001_0000001_0_0001_af2pred_0001 (protein)
chain: SSSSSERREEVIRLLREALQLLYEGDEEEARRLAEEAEELAEEANSPLLKLLVERLKEEINSSSS
B19: il10ra_site1_sap_12_mot_HHH_b2_05686_000000041_0001_1_18_H_._HHH_b1_06318_0001_0000300019_0000002_0_0001_af2pred_0001 (protein)
chain: SSSSDLEEEVEELLEEAKRIEDPEEVRKLLKEAARIAARARNPELSAAILEVFAELARAESSSSS
B20: il10ra_site1_sap_23_mot_HHH_b2_00273_000000062_0001_23_39_H_._HHH_b2_07535_0001_0000200013_0000001_0_0001 (protein)
chain: SSSSDTLEWSTKFTLEFIRQAYENGDPESAEKAIRELKEILEQAGNEELEEELEELERELSSSSS
B21: il10ra_site1_sap_10_mot_HHH_b2_04646_000000019_0001_1_20_H_._HHH_b1_08608_af2_0001_0000200016_0000001_0_0001_af2pred_0001 (protein)
chain: SSSSDEEREEVEELLEEAKHIEDPRERAHVLFRALRLALEIRDPEASKAVDKVALELFEKSSSSS
B22: il10ra_site1_normal_mot_HHH_b2_00033_000000036_0001_41_54_H_._HHH_b1_00990_0001_0000100001_0000001_0 (protein)
chain: SSSDETEEASELAAEAIRLAIRLGDEEIFQELWELFKLVIREGDPEVTERLEELLEELRERSSSS
B23: il10ra_site1_normal_mot_HHH_b2_03438_af2_000000049_0001_18_34_H_._HHH_b2_05696_0001_0000600042_0000002_0_af2pred_0001 (protein)
chain: SSSSSDEEIEREVERLIEELEEVSPEEAFELLREAAELAHELENPELSQLVLEASRRSVTSSSSS
B24: il10ra_site1_sap_8_mot_HHH_b2_01447_af2_000000258_0001_1_20_H_._HHH_b1_01734_0001_0000300050_0000001_0_0001 (protein)
chain: SSSSEEEFKRIKELIERVAEAIRRGDEEEAEKLLEEAERLAKERGDWSLRFAIELLERALSSSSS

The binders below were run against il10ra, Q13651 (assay: yeast display titration).

Apparent Kd, inactive:
B1 no binding seen, B2 no binding seen, B3 no binding seen, B4 no binding seen, B5 no binding seen, B6 no binding seen, B7 no binding seen, B8 no binding seen, B9 no binding seen, B10 no binding seen, B11 no binding seen, B12 no binding seen, B13 no binding seen, B14 no binding seen, B15 no binding seen, B16 no binding seen, B17 no binding seen, B18 no binding seen, B19 no binding seen, B20 no binding seen, B21 no binding seen, B22 no binding seen, B23 no binding seen, B24 no binding seen
